Results: patent US10159726B2, “Peptides, combination of peptides and scaffolds for use in immunotherapeutic treatment of various cancers” (Immatics Biotechnologies GmbH, priority 2015, dated 2018)
For part of these data: Expression values are those of the mRNA of the gene that encodes the peptide; a gene is named only where it was looked up.

What was measured:
Set-up in all cases: species or system human
[1] = test system: HLA-A*24 molecules of primary tumors; test: Identification and relative LC-MS quantitation of HLA-A*24 tumor-associated peptides presented on tissue samples (XPRESIDENT presentation profiles); conditions: for ENTITIES: Table 9A: selected HLA-A*24-binding tumor-associated peptides, cancer entities on which the peptide was found presented
[2] = test system: source genes of selected peptides; test: Target coverage of source genes in tumor entities based on TCGA Research Network data; conditions: over-expressed = more than 2-fold above the highest 75% percentile of normal organs; for Target coverage, over-expression category of source gene, KICH (N = 66): Kidney chromophobe; for Target coverage, over-expression category of source gene, DLBC (N = 48): Lymphoid neoplasm diffuse large B-cell lymphoma; for Target coverage, over-expression category of source gene, BLCA (N = 408): Bladder urothelial carcinoma; for Target coverage, over-expression category of source gene, CESC (N = 307): Cervical squamous cell carcinoma and endocervical adenocarcinoma; for Target coverage, over-expression category of source gene, CHOL (N = 36): Cholangiocarcinoma; for Target coverage, over-expression category of source gene, HNSC (N = 521): Head and neck squamous cell carcinoma; for Target coverage, over-expression category of source gene, MESO (N = 87): Mesothelioma; for Target coverage, over-expression category of source gene, ACC (N = 79): Adrenocortical carcinoma
[3] = test system: source genes of selected peptides; test: Expression profiling of source genes by in-house RNAseq, tumor vs normal tissues (target coverage); conditions: for Target coverage for source genes of selected peptides, GBC_CCC (N = 10): gallbladder adenocarcinoma and cholangiocarcinoma; for Target coverage for source genes of selected peptides, GBC_CCC (N = 10) / Target coverage for source genes of selected peptides, GC (N = 11) / Target coverage for source genes of selected peptides, HNSCC (N = 10) / Target coverage for source genes of selected peptides, MEL (N = 10) / Target coverage for source genes of selected peptides, NHL (N = 10) / Target coverage for source genes of selected peptides, PCA (n = 10) / Target coverage for source genes of selected peptides, UBC (N = 10) / Target coverage for source genes of selected peptides, UTC (N = 10): share of tumors with more than 1.5-fold higher expression than the highest-expressing relevant normal tissue, in-house RNAseq; for Target coverage for source genes of selected peptides, GC (N = 11): gastric cancer; for Target coverage for source genes of selected peptides, HNSCC (N = 10): head and neck small cell carcinoma; for Target coverage for source genes of selected peptides, MEL (N = 10): melanoma; for Target coverage for source genes of selected peptides, NHL (N = 10): non-Hodgkin lymphoma; for Target coverage for source genes of selected peptides, PCA (n = 10): prostate cancer and benign prostate hyperplasia; for Target coverage for source genes of selected peptides, UBC (N = 10): urinary bladder cancer; for Target coverage for source genes of selected peptides, UTC (N = 10): uterine cancer

## 129: peptide found in MOB1A (gene looked up) (KYIDYLMTW; listed as Homo sapiens) [compound 129]
[1]
  ENTITIES: NSCLC, GC, GB, PCA, HCC
[2]
  Target coverage, over-expression category of source gene, KICH (N = 66): B (>=20% of tumors above the cutoff, but <50%)
  Target coverage, over-expression category of source gene, DLBC (N = 48): B (>=20% of tumors above the cutoff, but <50%)

## 130: peptide found in MOB1A (gene looked up) (VYAHIYHQHF; listed as Homo sapiens) [compound 130]
[1]
  ENTITIES: NSCLC, GC, PCA, HCC
[2]
  Target coverage, over-expression category of source gene, KICH (N = 66): B (>=20% of tumors above the cutoff, but <50%)
  Target coverage, over-expression category of source gene, DLBC (N = 48): B (>=20% of tumors above the cutoff, but <50%)

## 188: peptide found in SLC28A3 (gene looked up) (GYKTFFNEF; listed as Homo sapiens) [compound 188]
[1]
  ENTITIES: NSCLC
[2]
  Target coverage, over-expression category of source gene, BLCA (N = 408): C (>=5% of tumors above the cutoff, but <20%)
  Target coverage, over-expression category of source gene, CESC (N = 307): B (>=20% of tumors above the cutoff, but <50%)
  Target coverage, over-expression category of source gene, CHOL (N = 36): B (>=20% of tumors above the cutoff, but <50%)
  Target coverage, over-expression category of source gene, HNSC (N = 521): B (>=20% of tumors above the cutoff, but <50%)
  Target coverage, over-expression category of source gene, MESO (N = 87): B (>=20% of tumors above the cutoff, but <50%)

## 202: peptide found in ALOX15 (gene looked up) (RYVEGIVSL; listed as Homo sapiens) [compound 202]
[1]
  ENTITIES: NSCLC
[2]
  Target coverage, over-expression category of source gene, CESC (N = 307): C (>=5% of tumors above the cutoff, but <20%)

## 253: peptide found in NPFFR2 (gene looked up) (IYGFFNENF; listed as Homo sapiens) [compound 253]
[1]
  ENTITIES: HCC
[2]
  Target coverage, over-expression category of source gene, BLCA (N = 408): C (>=5% of tumors above the cutoff, but <20%)
  Target coverage, over-expression category of source gene, MESO (N = 87): B (>=20% of tumors above the cutoff, but <50%)
[2]; Pheochromocytoma and paraganglioma
  Target coverage, over-expression category of source gene, PCPG (N = 184): B (>=20% of tumors above the cutoff, but <50%)

## 317: peptide found in SIAH1 (gene looked up) (VFDTSIAQLF; listed as Homo sapiens) [compound 317]
[1]
  ENTITIES: GB, RCC, HCC, NSCLC, GC
[3]
  Target coverage for source genes of selected peptides, GBC_CCC (N = 10): I (<19% over-expression = I)
  Target coverage for source genes of selected peptides, GC (N = 11): I (<19% over-expression = I)
  Target coverage for source genes of selected peptides, HNSCC (N = 10): I (<19% over-expression = I)
  Target coverage for source genes of selected peptides, MEL (N = 10): I (<19% over-expression = I)
  Target coverage for source genes of selected peptides, NHL (N = 10): I (<19% over-expression = I)
  Target coverage for source genes of selected peptides, PCA (n = 10): I (<19% over-expression = I)
  Target coverage for source genes of selected peptides, UBC (N = 10): I (<19% over-expression = I)
  Target coverage for source genes of selected peptides, UTC (N = 10): I (<19% over-expression = I)

## 347: peptide found in CSNK2A2 (gene looked up) (VYAEVNSL; listed as Homo sapiens) [compound 347]
[1]
  ENTITIES: GB, NSCLC, GC
[3]
  Target coverage for source genes of selected peptides, GBC_CCC (N = 10): I (<19% over-expression = I)
  Target coverage for source genes of selected peptides, GC (N = 11): I (<19% over-expression = I)
  Target coverage for source genes of selected peptides, HNSCC (N = 10): I (<19% over-expression = I)
  Target coverage for source genes of selected peptides, MEL (N = 10): I (<19% over-expression = I)
  Target coverage for source genes of selected peptides, NHL (N = 10): I (<19% over-expression = I)
  Target coverage for source genes of selected peptides, PCA (n = 10): I (<19% over-expression = I)
  Target coverage for source genes of selected peptides, UBC (N = 10): I (<19% over-expression = I)
  Target coverage for source genes of selected peptides, UTC (N = 10): I (<19% over-expression = I)

## 350: peptide found in GTPBP10 (gene looked up) (KYGNFIDKL; listed as Homo sapiens) [compound 350]
[1]
  ENTITIES: NSCLC, GC, HCC
[1]; Table 9B: selected HLA-A*24 peptides, presentation on additional cancer entities
  Peptide Presentation on cancer entities: PCA
[3]; AML (N = 7), share of tumors with more than 1.5-fold higher expression than highest relevant normal tissue, in-house RNASeq
  Target coverage, over-expression of source gene, AML: I (<19% over-expression = I)
[3]; BRCA (N = 10), share of tumors with more than 1.5-fold higher expression than highest relevant normal tissue, in-house RNASeq
  Target coverage, over-expression of source gene, BRCA: I (<19% over-expression = I)
[3]; CLL (N = 10), share of tumors with more than 1.5-fold higher expression than highest relevant normal tissue, in-house RNASeq
  Target coverage, over-expression of source gene, CLL: I (<19% over-expression = I)
[3]; CRC (N = 20), share of tumors with more than 1.5-fold higher expression than highest relevant normal tissue, in-house RNASeq
  Target coverage, over-expression of source gene, CRC: I (<19% over-expression = I)
[3]; GB (N = 24), share of tumors with more than 1.5-fold higher expression than highest relevant normal tissue, in-house RNASeq
  Target coverage, over-expression of source gene, GB: I (<19% over-expression = I)
[3]; HCC (N = 15), share of tumors with more than 1.5-fold higher expression than highest relevant normal tissue, in-house RNASeq
  Target coverage, over-expression of source gene, HCC: I (<19% over-expression = I)
[3]; OC (N = 12), share of tumors with more than 1.5-fold higher expression than highest relevant normal tissue, in-house RNASeq
  Target coverage, over-expression of source gene, OC: II (20-49% = II)
[3]; OSCAR (N = 11), share of tumors with more than 1.5-fold higher expression than highest relevant normal tissue, in-house RNASeq
  Target coverage, over-expression of source gene, OSCAR: I (<19% over-expression = I)
[3]; PC (N = 26), share of tumors with more than 1.5-fold higher expression than highest relevant normal tissue, in-house RNASeq
  Target coverage, over-expression of source gene, PC: I (<19% over-expression = I)
[3]; RCC (N = 10), share of tumors with more than 1.5-fold higher expression than highest relevant normal tissue, in-house RNASeq
  Target coverage, over-expression of source gene, RCC: I (<19% over-expression = I)
[3]; SCLC (N = 10), share of tumors with more than 1.5-fold higher expression than highest relevant normal tissue, in-house RNASeq
  Target coverage, over-expression of source gene, SCLC: I (<19% over-expression = I)
[3]
  Target coverage for source genes of selected peptides, GBC_CCC (N = 10): I (<19% over-expression = I)
  Target coverage for source genes of selected peptides, GC (N = 11): I (<19% over-expression = I)
  Target coverage for source genes of selected peptides, HNSCC (N = 10): I (<19% over-expression = I)
  Target coverage for source genes of selected peptides, MEL (N = 10): I (<19% over-expression = I)
  Target coverage for source genes of selected peptides, NHL (N = 10): I (<19% over-expression = I)
  Target coverage for source genes of selected peptides, PCA (n = 10): I (<19% over-expression = I)
  Target coverage for source genes of selected peptides, UBC (N = 10): I (<19% over-expression = I)
  Target coverage for source genes of selected peptides, UTC (N = 10): I (<19% over-expression = I)
[3]; pNSCLC (N = 11), share of tumors with more than 1.5-fold higher expression than highest relevant normal tissue, in-house RNASeq
  Target coverage, over-expression of source gene, pNSCLC: I (<19% over-expression = I)

## 369: peptide found in CDK1 (gene looked up) (VYTHEVVTL; listed as Homo sapiens) [compound 369]
[1]
  ENTITIES: NSCLC
[2]
  Target coverage, over-expression category of source gene, ACC (N = 79): C (>=5% of tumors above the cutoff, but <20%)
  Target coverage, over-expression category of source gene, BLCA (N = 408): B (>=20% of tumors above the cutoff, but <50%)
  Target coverage, over-expression category of source gene, CESC (N = 307): A (>=50% of tumors above the cutoff)
  Target coverage, over-expression category of source gene, HNSC (N = 521): B (>=20% of tumors above the cutoff, but <50%)
  Target coverage, over-expression category of source gene, DLBC (N = 48): B (>=20% of tumors above the cutoff, but <50%)

## 391: peptide found in CDK1 (gene looked up) (LYQILQGIVF; listed as Homo sapiens) [compound 391]
[1]
  ENTITIES: NSCLC, GC, GB, RCC, HCC
[2]
  Target coverage, over-expression category of source gene, ACC (N = 79): C (>=5% of tumors above the cutoff, but <20%)
  Target coverage, over-expression category of source gene, BLCA (N = 408): B (>=20% of tumors above the cutoff, but <50%)
  Target coverage, over-expression category of source gene, CESC (N = 307): A (>=50% of tumors above the cutoff)
  Target coverage, over-expression category of source gene, HNSC (N = 521): B (>=20% of tumors above the cutoff, but <50%)
  Target coverage, over-expression category of source gene, DLBC (N = 48): B (>=20% of tumors above the cutoff, but <50%)

## 394: peptide found in FANCI (gene looked up) (FYQPKIQQF; listed as Homo sapiens) [compound 394]
[1]
  ENTITIES: GB, PCA, HCC, NSCLC, GC
[2]
  Target coverage, over-expression category of source gene, BLCA (N = 408): B (>=20% of tumors above the cutoff, but <50%)
  Target coverage, over-expression category of source gene, CESC (N = 307): A (>=50% of tumors above the cutoff)
  Target coverage, over-expression category of source gene, CHOL (N = 36): C (>=5% of tumors above the cutoff, but <20%)
  Target coverage, over-expression category of source gene, HNSC (N = 521): B (>=20% of tumors above the cutoff, but <50%)
  Target coverage, over-expression category of source gene, DLBC (N = 48): A (>=50% of tumors above the cutoff)
  Target coverage, over-expression category of source gene, MESO (N = 87): C (>=5% of tumors above the cutoff, but <20%)
[2]; Lower grade glioma
  Target coverage, over-expression category of source gene, LGG (N = 534): C (>=5% of tumors above the cutoff, but <20%)
